Measured values: PubChem BioAssay AID493014 (National Center for Advancing Translational Sciences (NCATS), 2011)
Screen size: about 340,000 compounds; about 170 (0.05%) were called active. This list was built around the results that the source calls inconclusive (neither active nor inactive); the mix of calls is not that of the screen. The call rests on the fitted dose curve; in most records, active means well fitted inhibition curve with a large enough effect in the signal ratio, with a control signal flat (not every such curve was filed as active); inconclusive means small, poorly fitted or top-dose-only effect, or effect the other way, or a change in a side signal; inactive means flat fitted curve, though single readings scatter; the % refers to the signal ratio. Where the call is inconclusive, the potency comes from a doubtful curve fit.

experiment: qHTS Assay to Find Inhibitors of Chronic Active B-Cell Receptor Signaling; details: ABC-DLBCL IkBa-CBG/CBR reporter, luminescence ratio (green luciferase fused to IkBa over red control in TMD8 lymphoma cells), 4 h; activity change, negative = inhibition: at 46.1 µM (top of the series);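 on activity change, negative = inhibition: plate controls were basal doxycycline-induced cells for no effect and cells given 10 µM MG132 for full effect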
In short: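 Cell line TMD8 (human ABC DLBCL), stably expressing tet-inducible CBG68-IkBa fusion and CBR; IMDM/0.5% FBS; cpd up to 46 uM; dox induction, 4 h, 37C/5% CO2; dual luminescence; green/red ratio; MG132 control.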
Potency means the concentration at half of the fitted maximal effect.

SMILES | activity change, negative = inhibition | Potency
Cc1ccc([N+](=O)[O-])cc1NC(=O)CCSc1ccc(Cl)cc1 | inconclusive: 1.88% | 
O=C(NCC1CCCO1)/C(=C/c1ccc(Cl)cc1)NC(=O)c1ccccc1 (centres undefined) | inconclusive: 10.4% | 
Cc1nc2ccc(NC(=O)COc3ccccc3[N+](=O)[O-])cc2s1 | inconclusive: 2.59% | 
O=C(NCc1ccco1)C(C(=O)c1ccccc1)n1ccccc1=O (centres undefined) | inconclusive: 7.97% | 
CC(=O)Nc1ccc2nc(-c3ccco3)[nH]c2c1 | inconclusive: -12.4% | 
Cc1cc(-c2n[nH]c(=S)n2/N=C/C(Cl)=C/c2ccccc2)n[nH]1 |  | inconclusive: 18.4 µM [falling, single point]
CCOC(=O)CN1NC2(CCC(C)CC2)NC1=S (centres undefined) | inactive | 
O=C(c1cccc2ccccc12)N1CCN=C1SCc1ccc([N+](=O)[O-])cc1 | inconclusive: 16.3% | 
O=C(Nc1ccc(F)cc1)Nc1nnc(SCC(=O)N2CCCCC2)s1 | inconclusive: 22.4% | 
N#CCCn1nc(-c2ccccc2)cc1Nc1ccccc1NC(=O)c1cccs1 | inconclusive: 3.34% | 
Cc1ccc(C(=O)NCCCNC(=O)COc2ccc(Cl)c(C)c2)cn1 | inactive | 
C=CCOc1ccc(C(=O)CC)cc1OC | inconclusive: 7.15% | 
CSc1nc(N)nc(-c2cccs2)c1C#N |  | inconclusive: 15.8 µM [falling, single point]
Cn1c(=O)[nH]c2nnc(-c3ccc(Cl)c(Cl)c3)nc2c1=O |  | inconclusive: 2.51 µM [falling, full curve, poor fit]
O=C(NCC(=O)N1CCN(c2ccccc2)CC1)c1ccccc1 | inconclusive: -23% | 
O=C(CSc1nnc(-c2cccs2)n1-c1cccc(Cl)c1)c1cccc2c1OCCO2 | inconclusive: 19.2% | 
COc1cc(OC)c(NS(=O)(=O)c2cc3[nH]c(=O)c(=O)[nH]c3cc2C)cc1Cl | inactive | 
O=c1oc2ccccc2c(Nc2cc3ccccc3cc2O)c1[N+](=O)[O-] |  | inconclusive: 15.8 µM [falling, partial curve]
Cc1nc2ncnn2c(C)c1Cc1c(Cl)cccc1Cl | inconclusive: 12.7% | 
CCOC(=O)C1=C(NC(=S)NC(=O)c2ccccc2)c2ccccc2CC1C(C)C (centres undefined) | inactive | 
CN(C)CCN(C(=O)c1ccc(N2C(=O)CCC2=O)cc1)c1nc2cc3c(cc2s1)OCO3 |  | inconclusive: 35.5 µM [falling, single point]
CC(C)N(C(=O)CSc1ncnc2sc(-c3ccccc3)cc12)C(C)C | inconclusive: 10.1% | 
Cc1ccc2nc(-c3ccc(NC(=O)CN(c4ccccc4C)S(C)(=O)=O)cc3)sc2c1 | inconclusive: 8.28% | 
Cc1cnc([N+](=O)[O-])n1CCOC(=O)NC(=O)c1ccccc1Cl |  | inconclusive: 22.4 µM [falling, single point]
O=C(COc1ccc(Cl)cc1)NCCc1ccccn1 | inconclusive: 8.38% | 

SMILES | activity change, negative = inhibition | Potency
NS(=O)(=O)c1cccc(NC(=O)COC(=O)CNC(=O)c2ccc(-c3ccccc3)cc2)c1 |  | inconclusive: 18.4 µM [falling, partial curve, poor fit]
CCN(Cc1ccccc1)S(=O)(=O)c1ccc(C(=O)Nc2nnc(C3CC3)o2)cc1 | inactive | 
CCOc1ccc(/C=N/NC(=O)c2ccccc2NC(=O)c2ccc(OC)cc2)cc1 | inconclusive: -18% | 
CCOC(=O)N1CCN(S(=O)(=O)c2ccc(C(=O)Nc3nc4ccc(F)cc4s3)cc2)CC1 | inconclusive: -0.894% | 
C=CCOc1cccc(C2C(C(=O)c3ccco3)=C(O)C(=O)N2Cc2ccco2)c1 (centres undefined) | inactive | 
CCOC(=O)c1c2ccc(OCC(=O)NN)cc2n2ccccc12 | inconclusive: 6.09% | 
CCOc1ccccc1NC(=O)CSc1nc2ccccc2nc1N1CCCC1 |  | inconclusive: 3.55 µM [falling, single point]
CCOC(=O)C1=C(c2ccccc2)NC(=S)NC1c1cc([N+](=O)[O-])ccc1OC (centres undefined) | inactive | 
CCN(CC(=O)NCc1ccc(F)cc1)C(=O)C(C)Oc1cccc(Cl)c1 (centres undefined) | inactive | 
COc1cc(C(=S)N2CCC(Cc3ccccc3)CC2)ccc1OCC(N)=O | inactive | 
CCOC(=O)C(C)On1c(-c2ccccc2)nc2ccc([N+](=O)[O-])cc21 (centres undefined) |  | inconclusive: 20.6 µM [rising, partial curve, poor fit]
COC(=O)c1[nH]c2cccc(Cl)c2c1NC(=O)CN1CCCCC1C (centres undefined) | inconclusive: -15.8% | 
Cc1cc(C)c(NC(=S)NC(NC(=O)c2ccccc2)C(Cl)(Cl)Cl)c(C)c1 (centres undefined) | inconclusive: 5.45% | 
CCOC(=O)Cn1ccc(NC(=O)c2ccc3c(c2)OCO3)n1 |  | inconclusive: 31.6 µM [rising, single point]
CC(=O)OCC1=C(C(=O)O)N2C(=O)C(NC(=O)CCn3nc(C(F)(F)F)c(Br)c3C3CC3)C2SC1 (centres undefined) | inactive | 
Cc1ccc(C)c(NC(=O)C(=O)NCCc2c[nH]c3ccccc23)c1 |  | inconclusive: 5.62 µM [falling, full curve]
CCN(CC)C(=O)c1sc2c(c1C)c(=O)n(Cc1ccccc1)c(=O)n2CC(=O)Nc1ccc(OC)cc1 |  | inconclusive: 6.31 µM [falling, single point]
O=C(OCC(O)CO)c1ccccc1Nc1ccnc2cc(Cl)ccc12 (centres undefined) |  | inconclusive: 25.9 µM [cytotoxic, partial curve]
Cn1cc(Cl)c(C(=O)N/N=C/c2ccc3c4c(cccc24)CC3)n1 |  | inconclusive: 12.6 µM [falling, partial curve]
Cc1cc(C)cc(N(CC(=O)Nc2ccc(C)cc2Cl)S(=O)(=O)c2c(C)[nH]c(=O)[nH]c2=O)c1 | inconclusive: 7.52% | 
Cc1nnc(SCC(=O)Nc2cccc([N+](=O)[O-])c2)n1CC1CCCO1 (centres undefined) | inconclusive: -0.268% | 
Cc1cccc(Cc2nnc(CCC(=O)N(C)Cc3ccncc3C)o2)c1 |  | inconclusive: 17.8 µM [falling, single point]
Nc1nc(COc2ccc(F)cc2)nc(N2CCCCC2)n1 | inconclusive: -19.5% | 
COCCn1c(SCC(=O)N2CCCc3ccccc32)nc2c(c1=O)SC(C)C2 (centres undefined) |  | inconclusive: 6.51 µM [rising, partial curve, poor fit]

Given as tab-separated lines: part of the list above
SMILES	activity change, negative = inhibition	Potency
CCN(CC)C(=O)c1sc2c(c1C)c(=O)n(Cc1ccccc1)c(=O)n2CC(=O)Nc1ccc(OC)cc1		inconclusive: 6.31 µM [falling, single point]
O=C(OCC(O)CO)c1ccccc1Nc1ccnc2cc(Cl)ccc12 (centres undefined)		inconclusive: 25.9 µM [cytotoxic, partial curve]
Cn1cc(Cl)c(C(=O)N/N=C/c2ccc3c4c(cccc24)CC3)n1		inconclusive: 12.6 µM [falling, partial curve]
